## Assay results

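Cells infected with HSV are read for fold change in virus replication relative to baseline in the primary screen; the timing is not stated here. Fold increase in HSV replication; higher values mean stronger enhancement of virus growth.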

Common to all entries: measured here: primary screen fold increase 10 uM; at 10 µM. This is a side read-out of the assay, for part of the compounds, not drawn at random.

| structure | fold increase |
|---|---|
| `O=[N+]([O-])c1ccc(/C=C/C2=NN(c3ccccc3)C(c3ccco3)C2)o1` (stereo not given) | 8.49 |
| `Nc1c(C(=O)C2CC2)sc2nc(-c3cccs3)cc(C(F)(F)F)c12` | 7.66 |
| `Cc1ccc(-c2csc(/C(C#N)=C/Nc3ccc4c(c3)OCCO4)n2)cc1` | 1.47 |
| `CC(=O)N(C1=C(Cl)C(=O)c2ccccc2C1=O)C1CCCCC1` | 1.65 |
| `CN=c1scc(-c2ccccc2F)n1/N=C/c1ccc(O)c(O)c1O` | 1.52 |
| `Cc1ccc(-n2c(N)c(C(=O)Nc3c(C)n(C)n(-c4ccccc4)c3=O)c3nc4ccccc4nc32)cc1C` | 1.36 |
| `S=C(Nc1ccc2nc(-c3ccccn3)c(-c3ccccn3)nc2c1)N1CCCCCC1` | 1.34 |
| `COc1ccc(C2C(C#N)=C3NC(=O)c4c(sc5c4CCCCC5)N3C3=C2C(=O)CC(C)(C)C3)cc1` (stereo not given) | 1.66 |
| `O=C1S/C(=C/c2ccc(N3CCOCC3)o2)C(=O)N1Cc1c(F)cccc1Cl` | 1.71 |
| `Cc1ccc(OCC(=O)Nc2ccccc2Sc2ccc(Cl)cc2)c([N+](=O)[O-])n1` | 1.41 |
| `CCOC(=O)C1=C(Cc2ccc(C)cc2)C(=O)c2ccccc2C1=O` | 4.32 |
| `O=C1c2ccccc2-c2onc3ccc(NCCCn4ccnc4)c1c23` | 4.11 |
| `CCCCCCCCCOC(=O)C[n+]1csc(CCO)c1C` | 1.14 |
| `Cc1cccc(C)c1-n1c(C)cc(/C=N\Nc2ccc([N+](=O)[O-])cn2)c1C` | 1.203 |
| `CCOc1cccc(/C=C2\NC(=S)N(c3ccccc3)C2=O)c1O` | 1.34 |
| `Cc1ccc(Cn2ccc(-c3cnc(-c4ccccc4)s3)n2)cc1` | 1.32 |
| `COCCNC(=O)c1c(N)n(CCC2=CCCCC2)c2nc3ccccc3nc12` | 1.72 |
| `C1=C(c2ccccc2)Nc2nnnn2C1c1cccs1` (stereo not given) | 3.75 |
| `O=C(N/N=C/c1ccc(OCc2cnc(Cl)s2)cc1)c1ccncc1` | 1.35 |
| `CCOc1cc(C=C2C(=O)c3ccccc3C2=O)ccc1OCC(=O)Nc1ccc(C)cc1` | 1.39 |
| `CCOC(=O)c1c(/N=C/c2cc(C)ccc2O)sc2c1CCC2` | 1.78 |

2 of the entries, repeated:

With CCOC(=O)c1c(/N=C/c2cc(C)ccc2O)sc2c1CCC2 the assay gave fold increase 1.78.
With S=C(Nc1ccc2nc(-c3ccccn3)c(-c3ccccn3)nc2c1)N1CCCCCC1 the assay gave fold increase 1.34.

Source: PubChem BioAssay AID1956 (SRMLSC, 2009).